Reference: paper PMC10341573, “Design, Synthesis, and Biological Evaluation of Novel Quinazolin-4(3H)-One-Based Histone Deacetylase 6 (HDAC6) Inhibitors for Anticancer Activity” (International Journal of Molecular Sciences, 2023)

Tests used:
HCT116 = assay: MTT cell proliferation assay, HCT116; assay type: cell-based; details: Homo sapiens, HCT-116, 72 h, read-out: IC50 ± SD HCT116
Experimental: (§1) For cell viability and proliferation, the MTT assay was performed. […] This was followed by cell viability analysis using MTT according to the manufacturer’s instructions. Briefly, 10 μL of MTT solution was added to each well and incubated for 1–4 h at 37 °C. The formazan crystals formed were dissolved in 200 μL of solubilization solution (DMSO), and absorbance was recorded at 570 nm.

MCF7 = assay: MTT cell proliferation assay, MCF7; assay type: cell-based; details: Homo sapiens, MCF7, 72 h, read-out: IC50 ± SD MCF7
Experimental: as §1

B16 = assay: MTT cell proliferation assay, B16; assay type: cell-based, murine; details: Mus musculus, B16, 72 h, read-out: IC50 ± SD B16
Experimental: as §1

HEK 293 = assay: MTT cell proliferation assay, HEK 293; assay type: cell-based; details: Homo sapiens, HEK293, 72 h, read-out: IC50 ± SD HEK 293
Experimental: as §1

O=C(CCCCCCC(=O)Nc1ccccc1)NO [SAHA, suberoylanilidehydroxamic acid, reference compound]
IC50 (HCT116): 7.99 ± 1.68 µM
IC50 (MCF7): 44.4 ± 8.3 µM
IC50 (B16): 32.9 ± 18 µM
IC50 (HEK 293): 11.9 ± 3.42 µM
